Reference: the supplement of paper PMC10849652
Some of the results follow.

Protein sequences, listed by entry. Tags and fused reporters are not part of them. Lines headed by an entry give the natural chain unless they say otherwise; changes in a name come on top.
UniProt Q7Z2W4: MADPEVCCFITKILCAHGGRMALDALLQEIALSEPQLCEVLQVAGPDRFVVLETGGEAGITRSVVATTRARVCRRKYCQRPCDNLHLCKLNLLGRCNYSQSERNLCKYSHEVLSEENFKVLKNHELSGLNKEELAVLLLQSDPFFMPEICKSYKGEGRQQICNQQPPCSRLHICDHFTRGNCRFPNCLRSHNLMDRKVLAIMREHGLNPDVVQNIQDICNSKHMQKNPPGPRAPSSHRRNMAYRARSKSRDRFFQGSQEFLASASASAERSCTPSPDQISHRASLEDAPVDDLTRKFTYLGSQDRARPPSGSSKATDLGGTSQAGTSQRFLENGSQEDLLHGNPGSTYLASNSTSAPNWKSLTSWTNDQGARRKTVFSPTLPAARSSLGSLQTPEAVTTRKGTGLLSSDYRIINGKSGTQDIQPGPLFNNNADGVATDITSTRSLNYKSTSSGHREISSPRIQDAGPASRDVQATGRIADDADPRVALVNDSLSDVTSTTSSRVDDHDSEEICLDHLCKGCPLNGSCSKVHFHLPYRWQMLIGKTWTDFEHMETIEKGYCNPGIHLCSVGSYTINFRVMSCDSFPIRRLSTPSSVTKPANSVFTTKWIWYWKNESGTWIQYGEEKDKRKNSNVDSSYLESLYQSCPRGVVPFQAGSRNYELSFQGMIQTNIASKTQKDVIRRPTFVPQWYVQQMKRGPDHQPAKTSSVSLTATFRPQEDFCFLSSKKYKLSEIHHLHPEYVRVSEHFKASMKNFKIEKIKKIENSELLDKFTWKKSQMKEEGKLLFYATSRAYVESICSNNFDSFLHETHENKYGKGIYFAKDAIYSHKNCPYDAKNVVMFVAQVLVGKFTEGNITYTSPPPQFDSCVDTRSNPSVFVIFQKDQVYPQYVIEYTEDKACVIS
UniProt O95619, whole entry, looked up: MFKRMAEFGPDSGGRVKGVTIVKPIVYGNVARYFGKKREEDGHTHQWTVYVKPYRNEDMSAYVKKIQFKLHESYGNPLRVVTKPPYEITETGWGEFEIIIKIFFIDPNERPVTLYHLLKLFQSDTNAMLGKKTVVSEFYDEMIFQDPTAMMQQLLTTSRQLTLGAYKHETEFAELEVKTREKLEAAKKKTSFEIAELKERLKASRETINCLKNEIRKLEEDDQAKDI
UniProt Q9BYJ9: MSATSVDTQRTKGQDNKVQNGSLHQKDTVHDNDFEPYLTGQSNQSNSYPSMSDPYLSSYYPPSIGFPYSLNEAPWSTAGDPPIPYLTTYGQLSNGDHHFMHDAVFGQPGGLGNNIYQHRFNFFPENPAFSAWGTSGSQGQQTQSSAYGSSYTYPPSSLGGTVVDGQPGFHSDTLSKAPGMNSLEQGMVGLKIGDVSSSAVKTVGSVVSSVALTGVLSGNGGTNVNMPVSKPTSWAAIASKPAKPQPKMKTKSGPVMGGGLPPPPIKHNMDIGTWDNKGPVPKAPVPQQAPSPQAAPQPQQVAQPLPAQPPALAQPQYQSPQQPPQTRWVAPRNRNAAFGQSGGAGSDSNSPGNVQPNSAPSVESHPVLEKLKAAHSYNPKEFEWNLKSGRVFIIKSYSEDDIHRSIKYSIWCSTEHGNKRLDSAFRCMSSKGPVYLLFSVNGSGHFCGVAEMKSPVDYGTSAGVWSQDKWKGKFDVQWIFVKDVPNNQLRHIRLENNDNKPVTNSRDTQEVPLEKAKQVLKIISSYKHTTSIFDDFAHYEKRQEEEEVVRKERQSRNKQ
UniProt Q86WB0: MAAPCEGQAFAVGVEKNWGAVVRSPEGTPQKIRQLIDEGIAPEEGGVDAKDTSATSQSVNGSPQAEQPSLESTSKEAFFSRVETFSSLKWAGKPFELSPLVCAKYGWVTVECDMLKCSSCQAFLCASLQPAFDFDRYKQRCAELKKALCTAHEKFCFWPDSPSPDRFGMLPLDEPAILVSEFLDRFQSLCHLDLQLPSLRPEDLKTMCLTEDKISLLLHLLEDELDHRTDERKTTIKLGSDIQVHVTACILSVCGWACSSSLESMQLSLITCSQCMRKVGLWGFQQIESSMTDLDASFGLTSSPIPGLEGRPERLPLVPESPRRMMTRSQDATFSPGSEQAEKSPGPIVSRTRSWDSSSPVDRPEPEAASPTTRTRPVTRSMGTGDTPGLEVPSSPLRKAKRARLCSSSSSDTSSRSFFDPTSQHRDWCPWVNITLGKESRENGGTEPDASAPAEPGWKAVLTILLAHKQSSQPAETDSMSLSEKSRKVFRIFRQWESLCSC
UniProt P07947, whole entry, looked up: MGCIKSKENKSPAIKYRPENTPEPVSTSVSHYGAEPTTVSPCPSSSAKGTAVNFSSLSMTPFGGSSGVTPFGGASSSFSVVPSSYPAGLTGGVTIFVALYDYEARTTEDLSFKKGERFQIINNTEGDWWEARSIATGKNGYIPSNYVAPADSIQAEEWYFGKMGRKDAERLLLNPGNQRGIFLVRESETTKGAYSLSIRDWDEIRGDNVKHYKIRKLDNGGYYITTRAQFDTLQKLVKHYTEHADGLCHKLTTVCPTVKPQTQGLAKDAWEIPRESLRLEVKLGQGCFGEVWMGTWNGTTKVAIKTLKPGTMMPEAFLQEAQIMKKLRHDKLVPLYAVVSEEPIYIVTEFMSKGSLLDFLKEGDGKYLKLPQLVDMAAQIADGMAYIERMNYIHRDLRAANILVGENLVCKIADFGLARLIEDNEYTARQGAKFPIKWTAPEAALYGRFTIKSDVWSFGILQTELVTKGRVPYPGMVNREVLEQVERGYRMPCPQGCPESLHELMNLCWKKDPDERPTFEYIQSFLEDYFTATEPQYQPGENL
UniProt A8MPS7: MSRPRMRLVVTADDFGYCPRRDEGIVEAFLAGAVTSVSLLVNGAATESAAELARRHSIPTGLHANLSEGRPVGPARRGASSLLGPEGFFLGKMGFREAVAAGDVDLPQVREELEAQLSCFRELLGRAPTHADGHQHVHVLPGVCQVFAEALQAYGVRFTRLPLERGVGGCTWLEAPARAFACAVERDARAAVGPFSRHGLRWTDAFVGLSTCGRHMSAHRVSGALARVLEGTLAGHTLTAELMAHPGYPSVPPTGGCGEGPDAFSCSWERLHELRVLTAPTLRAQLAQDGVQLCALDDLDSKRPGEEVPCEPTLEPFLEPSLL
UniProt Q9UIA9: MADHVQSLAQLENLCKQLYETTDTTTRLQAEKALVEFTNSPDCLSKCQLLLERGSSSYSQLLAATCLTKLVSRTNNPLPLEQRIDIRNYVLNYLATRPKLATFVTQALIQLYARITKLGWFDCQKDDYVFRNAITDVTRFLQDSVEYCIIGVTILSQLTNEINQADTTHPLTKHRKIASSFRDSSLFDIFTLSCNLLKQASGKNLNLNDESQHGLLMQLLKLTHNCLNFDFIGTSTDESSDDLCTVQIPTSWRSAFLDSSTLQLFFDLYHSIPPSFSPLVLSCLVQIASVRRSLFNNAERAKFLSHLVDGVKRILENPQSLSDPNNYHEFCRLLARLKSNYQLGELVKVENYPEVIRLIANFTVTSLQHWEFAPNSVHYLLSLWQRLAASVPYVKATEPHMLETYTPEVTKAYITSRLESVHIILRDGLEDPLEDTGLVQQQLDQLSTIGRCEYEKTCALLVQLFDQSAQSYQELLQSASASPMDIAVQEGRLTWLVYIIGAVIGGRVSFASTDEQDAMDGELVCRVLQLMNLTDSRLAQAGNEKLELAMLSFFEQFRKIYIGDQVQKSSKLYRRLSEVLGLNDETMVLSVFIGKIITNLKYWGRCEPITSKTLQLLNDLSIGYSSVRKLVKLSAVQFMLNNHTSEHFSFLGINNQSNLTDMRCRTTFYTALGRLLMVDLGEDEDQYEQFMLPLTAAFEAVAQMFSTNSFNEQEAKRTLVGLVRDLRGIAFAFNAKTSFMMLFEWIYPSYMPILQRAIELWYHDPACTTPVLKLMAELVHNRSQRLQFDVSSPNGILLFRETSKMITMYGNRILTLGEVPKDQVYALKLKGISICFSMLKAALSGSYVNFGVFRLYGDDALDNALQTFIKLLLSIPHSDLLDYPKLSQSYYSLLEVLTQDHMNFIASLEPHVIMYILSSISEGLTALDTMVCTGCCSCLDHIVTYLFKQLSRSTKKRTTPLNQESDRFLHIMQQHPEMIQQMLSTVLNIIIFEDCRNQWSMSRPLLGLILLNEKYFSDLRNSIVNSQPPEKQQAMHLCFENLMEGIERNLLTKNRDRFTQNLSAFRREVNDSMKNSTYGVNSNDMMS
UniProt Q9NUD5: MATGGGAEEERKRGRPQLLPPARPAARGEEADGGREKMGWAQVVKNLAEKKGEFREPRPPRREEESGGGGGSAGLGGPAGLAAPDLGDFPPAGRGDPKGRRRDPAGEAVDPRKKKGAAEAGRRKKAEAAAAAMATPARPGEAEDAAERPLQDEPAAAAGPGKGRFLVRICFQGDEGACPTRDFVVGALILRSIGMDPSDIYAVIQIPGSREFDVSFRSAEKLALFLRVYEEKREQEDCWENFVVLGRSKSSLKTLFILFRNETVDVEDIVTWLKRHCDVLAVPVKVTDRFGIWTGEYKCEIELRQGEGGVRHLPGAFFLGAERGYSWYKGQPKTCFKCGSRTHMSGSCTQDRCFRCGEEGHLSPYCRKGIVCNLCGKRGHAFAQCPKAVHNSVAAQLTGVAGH

Experiments:
Assay in all cases: log2 fold change, soluble protein after heating vs DMSO (PISA); higher = thermal stabilisation; K562 lysate, 10 uM; active = over 0.2 and 3.5 SD of the protein, either way, in both replicates (recomputed)
[1] = compound: CN1CC[C@H](c2c(O)cc(O)c3c(=O)cc(-c4ccccc4Cl)oc23)[C@H](O)C1 [alvocidib]
Method in brief: (§1)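 Pellets of K562 cells were dounce-homogenised in PBS pH 7.4 with 1 mM MgCl2, and the crude extract was held at 1 mg/mL protein for a 30 min treatment with 10 μM compound. Aliquots were heated for 3 min over 48°C-58°C and pooled before NP-40 was added to 0.5% at 4°C. The supernatant from 21,000xg for 90 min was quantified by TMTpro 16plex LC-MS/MS with channel sums equalised. Values are reported from duplicates as log-two fold change in thermal stability relative to solvent controls.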

[2] = compound: CN1CCc2c(c3ccccc3n2Cc2ccc(C(=O)NO)cc2)C1 [Tubastatin A]
Method in brief: as §1

[3] = compound: CNC(=O)C1=CC=CC=C1NC2=NC(=NC=C2Cl)NC3=C(C=C(C=C3)N4CCOCC4)OC
Method in brief: as §1

[4] = compound: CNC(=O)c1ccc(Nc2ncc(C(F)(F)F)c(NCc3nccnc3N(C)S(C)(=O)=O)n2)cc1 [defactinib]
Method in brief: as §1

[5] = compound: CNc1nc(-c2ccc3c(N)n[nH]c3c2)cc(N2C[C@@H](C(=O)NC3CCCCC3)CC[C@H]2C)n1
Method in brief: as §1

[6] = compound: COC(=O)N[C@@H](C)CNc1nccc(-c2cn(C(C)C)nc2-c2cc(Cl)cc(NS(C)(=O)=O)c2F)n1 [encorafenib]
Method in brief: as §1

[7] = compound: COC(=O)[C@H](CCSC)NC(=O)C1=C(C=C(C=C1)NC[C@H](CS)N)C2=CC=CC=C2
Method in brief: as §1

[8] = compound: COc1cc(Nc2ncc3c(n2)-c2ccc(Cl)cc2C(c2c(F)cccc2OC)=NC3)ccc1C(=O)O [alisertib]
Method in brief: as §1

[9] = compound: COc1cc2nc(-c3cc(F)ccc3O)nc(N[C@@H]3CNC[C@H]3C(C)(C)O)c2cc1OC
Method in brief: as §1

[10] = compound: COc1cc2ncnc(Nc3ccc(F)c(Cl)c3)c2cc1OCCCN1CCOCC1 [gefitinib]
Method in brief: as §1

[11] = compound: CS(=O)(=O)CCNCc1ccc(-c2ccc3ncnc(Nc4ccc(OCc5cccc(F)c5)c(Cl)c4)c3c2)o1 [lapatinib]
Method in brief: as §1

[12] = compound: CS(=O)(=O)N1CCN(Cc2cc3nc(-c4cccc5[nH]ncc45)nc(N4CCOCC4)c3s2)CC1 [pictilisib]
Method in brief: as §1

[13] = compound: C[C@@H](Oc1cc(-c2cnn(C3CCNCC3)c2)cnc1N)c1c(Cl)ccc(F)c1Cl [crizotinib]
Method in brief: as §1

[14] = compound: C[C@H](C1=CC=C(C=C1)C(=O)NC2=C3C=CNC3=NC=C2)N
Method in brief: as §1

[15] = compound: C[C@H](Nc1ncnc2nc[nH]c12)c1cc2cccc(Cl)c2c(=O)n1-c1ccccc1 [duvelisib]
Method in brief: as §1

[16] = compound: Cc1cc(Nc2cc(CN3CCOCC3)c3nc(C)c(Cc4ccc(Cl)cc4F)n3n2)n[nH]1 [gandotinib]
Method in brief: as §1

[17] = compound: Cc1cc(Nc2cc(N3CCN(C)CC3)nc(Sc3ccc(NC(=O)C4CC4)cc3)n2)n[nH]1 [tozasertib]
Method in brief: as §1

[18] = compound: Cc1ccc(-n2nc(C(C)(C)C)cc2NC(=O)Nc2ccc(OCCN3CCOCC3)c3ccccc23)cc1 [doramapimod]
Method in brief: as §1

[19] = compound: Cc1ccc(NC(=O)c2ccc(CN3CC[C@H](N(C)C)C3)c(C(F)(F)F)c2)cc1Nc1nccc(-c2cncnc2)n1 [bafetinib]
Method in brief: as §1

[20] = compound: Cc1cccc(CC(=O)N2CCc3c2ccc(-c2cn(C)c4ncnc(N)c24)c3F)n1
Method in brief: as §1

Measured: log2 fold change

ZC3HAV1 (UniProt Q7Z2W4)
inactive: [1] 0.005 | [2] -0.078 | [3] -0.001 | [4] -0.003 | [5] -0.019 | [6] 0.022 | [7] 0.009 | [8] 0.032 | [9] 0.011 | [10] 0.008 | [11] 0 | [12] 0.021 | [13] -0.011 | [14] 0.012 | [15] 0.011 | [16] -0.062 | [17] -0.041 | [18] 0.057 | [19] -0.01 | [20] 0.015

YEATS4 (UniProt O95619)
active: [8] 0.315 | [14] 0.609
inactive: [1] 0.105 | [2] 0.004 | [3] 0.012 | [4] 0.007 | [5] -0.054 | [6] -0.004 | [7] -0.062 | [9] -0.008 | [10] -0.064 | [11] 0.023 | [12] 0.026 | [13] 0.02 | [15] -0.015 | [16] -0.126 | [17] -0.006 | [18] 0.064 | [19] -0.033 | [20] -0.083

YTHDF1 (UniProt Q9BYJ9)
inactive: [1] 0.033 | [2] -0.125 | [3] -0.008 | [4] 0.1 | [5] -0.083 | [6] -0.031 | [7] 0.129 | [8] 0.005 | [9] 0.047 | [10] 0.026 | [11] 0.02 | [12] -0.159 | [13] 0.017 | [14] -0.119 | [15] 0.055 | [16] -0.019 | [17] -0.013 | [18] 0.164 | [19] 0.007 | [20] 0.093

ZC3HC1 (UniProt Q86WB0)
active: [14] 0.222
inactive: [1] 0.049 | [2] -0.101 | [3] 0.018 | [4] -0.015 | [5] 0.034 | [6] -0.001 | [7] 0.078 | [8] 0.022 | [9] -0.013 | [10] 0.024 | [11] 0.042 | [12] 0.001 | [13] 0.023 | [15] 0.013 | [16] -0.082 | [17] -0.036 | [18] 0.025 | [19] -0.019 | [20] -0.094

YES1 (UniProt P07947)
inactive: [1] -0.065 | [2] 0.171 | [3] -0.003 | [4] -0.228 | [5] -0.094 | [6] -0.009 | [7] -0.024 | [8] 0.049 | [9] 0.087 | [10] -0.13 | [11] 0 | [12] -0.063 | [13] -0.128 | [14] -0.101 | [15] -0.066 | [16] 0.212 | [17] -0.105 | [18] -0.005 | [19] 0.155 | [20] 0.092

YDJC (UniProt A8MPS7)
inactive: [1] -0.039 | [2] 0.052 | [3] 0.014 | [4] -0.026 | [5] 0.014 | [6] -0.025 | [7] -0.036 | [8] 0.035 | [9] 0.007 | [10] -0.02 | [11] -0.003 | [12] -0.016 | [13] 0.022 | [14] -0.031 | [15] -0.044 | [16] 0.02 | [17] 0.022 | [18] 0.025 | [19] -0.017 | [20] -0.033

XPO7 (UniProt Q9UIA9)
inactive: [1] 0.005 | [2] -0.037 | [3] -0.006 | [4] -0.003 | [5] -0.011 | [6] 0.011 | [7] -0.026 | [8] -0.004 | [9] 0.009 | [10] 0.003 | [11] -0.016 | [12] -0.02 | [13] -0.012 | [14] -0.04 | [15] 0.024 | [16] -0.038 | [17] -0.005 | [18] 0.002 | [19] -0.036 | [20] 0.077

ZCCHC3 (UniProt Q9NUD5)
inactive: [1] -0.002 | [2] -0.05 | [3] -0.008 | [4] 0.013 | [5] -0.01 | [6] -0.009 | [7] -0.019 | [8] 0.028 | [9] 0.008 | [10] 0.034 | [11] -0.02 | [12] 0.014 | [13] 0.012 | [14] -0.056 | [15] 0.039 | [16] -0.013 | [17] 0.013 | [18] 0.001 | [19] 0.022 | [20] 0.057
